# Data source: PubChem BioAssay AID1259424 (University of Nebraska Medical Center, 2018)
# Test: 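Find knockdowns that reproduce the expression shifts seen after KSR1 loss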 (primary screen)
# Cell system: human HCT116 colon cancer cells
# Reagents: siRNA pool against human genes, 50 nM
# Measured: 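Log2 levels of six mRNAs (branched-DNA multiplex), adjusted by two reference genes and the non-targeting median, then scored against the average KSR1 knockdown pattern as Pearson r and euclidean distance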
# Reading the numbers: mean correlation with KSR1 profile and KSR1 correlation: higher = expression change more like KSR1 knockdown; mean distance from KSR1 profile: higher = expression change less like KSR1 knockdown
# The whole screen tested about 14,000 reagents; below is an unselected part. 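Higher correlation or smaller distance means closer resemblance to KSR1 loss; control wells, including KSR1 knockdowns, recur on many plates.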 The record does not give: the time to read-out.
Gene,mean correlation with KSR1 profile,mean distance from KSR1 profile,"KSR1 correlation, replicate 1","KSR1 correlation, replicate 2","KSR1 correlation, replicate 3"
IL6R,-0.119,1.55,-0.316,-0.112,0.211
PRPS2,0.348,2.38,0.6,0.584,-0.557
TCAP,-0.417,3.77,-0.208,-0.497,-0.393
P4HTM,-0.284,2.25,-0.312,-0.325,-0.362
GRB2,0.286,1.66,0.297,0.197,0.297
NECAP2,-0.158,1.93,-0.198,0.0949,-0.499
TIPE2,0.546,1.75,0.573,0.509,0.589
ZRANB3,0.932,0.649,0.886,0.86,0.896
CHRNA1,0.132,1.99,0.201,-0.0249,0.127
COPS7B,0.388,1.5,0.028,0.0082,0.495
RASSF7,0.214,2.48,0.319,0.197,-0.071
NKX2-5,0.259,1.18,0.291,0.708,-0.0628
IL2RG,0.305,1.12,0.239,0.219,0.526
STAMBP,0.0572,2.21,0.309,0.00144,-0.119
PDE4A,-0.327,2.4,-0.34,-0.305,-0.411
LTBP3,0.194,1.01,0.168,0.186,-0.314
NECTIN4,-0.257,2.62,-0.162,-0.509,-0.21
UTY,0.205,2.05,0.0759,-0.000676,0.728
PJA1,-0.672,1.85,-0.758,-0.693,-0.603
MMADHC,0.000796,1.23,-0.261,-0.0851,-0.281
FBXO10,-0.517,1.52,-0.648,-0.565,-0.37
ATP8B4,0.796,1.29,0.833,0.815,0.757
POLH,-0.117,3.06,-0.16,-0.109,-0.256
MITF,-0.54,3.31,0.0228,-0.581,-0.605
TLL1,0.214,3.11,0.302,0.111,0.128
MYLK,0.337,1.7,0.567,0.525,-0.257
GOLGA4,-0.197,1.46,-0.256,-0.491,0.154
UGT2A1,-0.0107,2.62,0.0305,-0.071,-0.000979
CCAR1,0.545,1.93,0.579,0.442,0.29
PAIP2,0.942,1.75,0.886,0.887,0.937
WDR11,0.522,2.55,0.367,0.382,0.587
SCYL2,0.0747,1.74,-0.666,0.343,0.0475
MFF,-0.863,2.59,-0.846,-0.751,-0.761
GSK3B,0.782,1.32,0.672,0.72,0.782
MAGED2,-0.474,1.9,-0.0753,-0.54,-0.645
H2AC8,0.157,1.84,0.0158,0.24,0.182
UROS,-0.323,1.02,0.22,-0.0598,-0.689
FGF10,-0.403,1.04,-0.102,-0.609,-0.0134
RBM3,-0.327,3.8,-0.316,-0.4,-0.228
SLC12A3,-0.0177,1.68,-0.0833,-0.085,0.064
UBE2Q1,0.314,2.84,0.35,0.191,0.338
ANO8,-0.585,6.98,-0.462,-0.262,-0.575
FBXL21P,0.436,1.54,0.437,0.229,0.434
S100A14,0.604,1.03,0.251,0.595,0.529
VN1R1,0.738,1.08,0.736,0.755,0.808
DTL,-0.537,1.71,-0.701,-0.319,-0.562
CACTIN,-0.832,2.74,-0.251,-0.704,-0.145
ITPKC,-0.43,2.65,-0.0939,-0.0718,-0.794
TMEM175,-0.255,2.33,-0.373,-0.18,-0.349
CDSN,0.00668,1.88,0.105,-0.141,0.0237

5 of these entries, set out differently:
{"Gene": "UGT2A1", "mean correlation with KSR1 profile": -0.0107, "mean distance from KSR1 profile": 2.62, "KSR1 correlation, replicate 1": 0.0305, "KSR1 correlation, replicate 2": -0.071, "KSR1 correlation, replicate 3": -0.000979}
{"Gene": "CCAR1", "mean correlation with KSR1 profile": 0.545, "mean distance from KSR1 profile": 1.93, "KSR1 correlation, replicate 1": 0.579, "KSR1 correlation, replicate 2": 0.442, "KSR1 correlation, replicate 3": 0.29}
{"Gene": "PAIP2", "mean correlation with KSR1 profile": 0.942, "mean distance from KSR1 profile": 1.75, "KSR1 correlation, replicate 1": 0.886, "KSR1 correlation, replicate 2": 0.887, "KSR1 correlation, replicate 3": 0.937}
{"Gene": "WDR11", "mean correlation with KSR1 profile": 0.522, "mean distance from KSR1 profile": 2.55, "KSR1 correlation, replicate 1": 0.367, "KSR1 correlation, replicate 2": 0.382, "KSR1 correlation, replicate 3": 0.587}
{"Gene": "SCYL2", "mean correlation with KSR1 profile": 0.0747, "mean distance from KSR1 profile": 1.74, "KSR1 correlation, replicate 1": -0.666, "KSR1 correlation, replicate 2": 0.343, "KSR1 correlation, replicate 3": 0.0475}
